Data: paper doi:10.1101/2023.09.13.555514
These are yes or no findings as the source states them, for the method shown. In cells and extracts the contact can be indirect. A yes stands for co-enrichment or nearness to the bait. Other partners may have been found. Where a sequence is shown, tags or fusion partners need not be part of it.

Chains of the proteins cited; added tags and fusions are not shown.
UniProt Q96JK2: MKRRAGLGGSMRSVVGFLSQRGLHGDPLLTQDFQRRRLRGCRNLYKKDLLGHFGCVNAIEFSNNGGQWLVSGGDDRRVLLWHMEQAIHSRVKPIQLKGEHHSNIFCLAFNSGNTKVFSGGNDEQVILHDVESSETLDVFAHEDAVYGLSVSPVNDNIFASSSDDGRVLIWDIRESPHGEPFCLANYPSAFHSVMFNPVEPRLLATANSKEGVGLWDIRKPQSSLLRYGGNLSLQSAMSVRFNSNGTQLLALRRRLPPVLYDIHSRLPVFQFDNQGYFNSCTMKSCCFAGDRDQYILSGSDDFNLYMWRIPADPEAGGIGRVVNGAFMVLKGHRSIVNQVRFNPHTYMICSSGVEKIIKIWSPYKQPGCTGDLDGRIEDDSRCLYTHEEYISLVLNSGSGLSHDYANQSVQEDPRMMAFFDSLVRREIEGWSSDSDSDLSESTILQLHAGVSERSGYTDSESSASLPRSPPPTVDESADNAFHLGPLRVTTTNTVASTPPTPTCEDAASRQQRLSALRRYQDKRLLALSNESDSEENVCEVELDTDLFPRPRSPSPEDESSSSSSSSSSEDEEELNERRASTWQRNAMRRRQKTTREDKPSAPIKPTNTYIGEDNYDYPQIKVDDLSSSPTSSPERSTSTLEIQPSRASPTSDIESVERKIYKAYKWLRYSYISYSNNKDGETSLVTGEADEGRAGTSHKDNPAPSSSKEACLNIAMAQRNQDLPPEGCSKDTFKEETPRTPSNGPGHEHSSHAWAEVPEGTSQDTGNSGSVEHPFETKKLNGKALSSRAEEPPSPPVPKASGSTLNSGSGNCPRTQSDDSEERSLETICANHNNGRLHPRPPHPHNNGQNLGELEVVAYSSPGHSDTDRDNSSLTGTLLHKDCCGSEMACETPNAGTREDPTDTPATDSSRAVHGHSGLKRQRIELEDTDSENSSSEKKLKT
UniProt Q16531: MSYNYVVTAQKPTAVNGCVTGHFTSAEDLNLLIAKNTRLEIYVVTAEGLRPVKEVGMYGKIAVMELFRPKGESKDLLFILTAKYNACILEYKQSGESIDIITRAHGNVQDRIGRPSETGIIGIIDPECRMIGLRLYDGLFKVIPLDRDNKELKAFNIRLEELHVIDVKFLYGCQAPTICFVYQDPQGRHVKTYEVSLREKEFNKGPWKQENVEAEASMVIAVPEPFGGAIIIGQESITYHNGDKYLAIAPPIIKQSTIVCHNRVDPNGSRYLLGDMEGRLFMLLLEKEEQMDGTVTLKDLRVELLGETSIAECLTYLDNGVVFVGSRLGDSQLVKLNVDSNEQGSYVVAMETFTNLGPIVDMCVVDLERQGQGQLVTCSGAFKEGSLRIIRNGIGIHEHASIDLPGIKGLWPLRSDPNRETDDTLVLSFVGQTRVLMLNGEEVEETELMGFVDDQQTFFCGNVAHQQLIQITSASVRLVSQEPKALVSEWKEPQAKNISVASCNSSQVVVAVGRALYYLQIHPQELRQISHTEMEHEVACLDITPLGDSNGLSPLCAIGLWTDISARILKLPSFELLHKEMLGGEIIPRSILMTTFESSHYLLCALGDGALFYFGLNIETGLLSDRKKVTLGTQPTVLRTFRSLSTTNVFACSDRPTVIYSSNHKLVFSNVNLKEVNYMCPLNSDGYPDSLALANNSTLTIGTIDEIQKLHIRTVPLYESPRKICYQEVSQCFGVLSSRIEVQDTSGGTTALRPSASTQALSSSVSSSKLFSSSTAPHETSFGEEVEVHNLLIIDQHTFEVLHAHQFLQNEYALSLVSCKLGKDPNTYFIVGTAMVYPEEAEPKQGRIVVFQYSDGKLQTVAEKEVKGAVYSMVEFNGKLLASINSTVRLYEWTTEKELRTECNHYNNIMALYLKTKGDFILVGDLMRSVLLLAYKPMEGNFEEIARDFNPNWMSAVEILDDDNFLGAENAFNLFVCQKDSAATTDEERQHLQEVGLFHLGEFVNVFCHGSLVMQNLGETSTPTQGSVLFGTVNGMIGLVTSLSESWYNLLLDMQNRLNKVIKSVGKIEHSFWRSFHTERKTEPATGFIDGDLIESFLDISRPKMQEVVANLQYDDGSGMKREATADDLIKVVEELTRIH
UniProt O94986: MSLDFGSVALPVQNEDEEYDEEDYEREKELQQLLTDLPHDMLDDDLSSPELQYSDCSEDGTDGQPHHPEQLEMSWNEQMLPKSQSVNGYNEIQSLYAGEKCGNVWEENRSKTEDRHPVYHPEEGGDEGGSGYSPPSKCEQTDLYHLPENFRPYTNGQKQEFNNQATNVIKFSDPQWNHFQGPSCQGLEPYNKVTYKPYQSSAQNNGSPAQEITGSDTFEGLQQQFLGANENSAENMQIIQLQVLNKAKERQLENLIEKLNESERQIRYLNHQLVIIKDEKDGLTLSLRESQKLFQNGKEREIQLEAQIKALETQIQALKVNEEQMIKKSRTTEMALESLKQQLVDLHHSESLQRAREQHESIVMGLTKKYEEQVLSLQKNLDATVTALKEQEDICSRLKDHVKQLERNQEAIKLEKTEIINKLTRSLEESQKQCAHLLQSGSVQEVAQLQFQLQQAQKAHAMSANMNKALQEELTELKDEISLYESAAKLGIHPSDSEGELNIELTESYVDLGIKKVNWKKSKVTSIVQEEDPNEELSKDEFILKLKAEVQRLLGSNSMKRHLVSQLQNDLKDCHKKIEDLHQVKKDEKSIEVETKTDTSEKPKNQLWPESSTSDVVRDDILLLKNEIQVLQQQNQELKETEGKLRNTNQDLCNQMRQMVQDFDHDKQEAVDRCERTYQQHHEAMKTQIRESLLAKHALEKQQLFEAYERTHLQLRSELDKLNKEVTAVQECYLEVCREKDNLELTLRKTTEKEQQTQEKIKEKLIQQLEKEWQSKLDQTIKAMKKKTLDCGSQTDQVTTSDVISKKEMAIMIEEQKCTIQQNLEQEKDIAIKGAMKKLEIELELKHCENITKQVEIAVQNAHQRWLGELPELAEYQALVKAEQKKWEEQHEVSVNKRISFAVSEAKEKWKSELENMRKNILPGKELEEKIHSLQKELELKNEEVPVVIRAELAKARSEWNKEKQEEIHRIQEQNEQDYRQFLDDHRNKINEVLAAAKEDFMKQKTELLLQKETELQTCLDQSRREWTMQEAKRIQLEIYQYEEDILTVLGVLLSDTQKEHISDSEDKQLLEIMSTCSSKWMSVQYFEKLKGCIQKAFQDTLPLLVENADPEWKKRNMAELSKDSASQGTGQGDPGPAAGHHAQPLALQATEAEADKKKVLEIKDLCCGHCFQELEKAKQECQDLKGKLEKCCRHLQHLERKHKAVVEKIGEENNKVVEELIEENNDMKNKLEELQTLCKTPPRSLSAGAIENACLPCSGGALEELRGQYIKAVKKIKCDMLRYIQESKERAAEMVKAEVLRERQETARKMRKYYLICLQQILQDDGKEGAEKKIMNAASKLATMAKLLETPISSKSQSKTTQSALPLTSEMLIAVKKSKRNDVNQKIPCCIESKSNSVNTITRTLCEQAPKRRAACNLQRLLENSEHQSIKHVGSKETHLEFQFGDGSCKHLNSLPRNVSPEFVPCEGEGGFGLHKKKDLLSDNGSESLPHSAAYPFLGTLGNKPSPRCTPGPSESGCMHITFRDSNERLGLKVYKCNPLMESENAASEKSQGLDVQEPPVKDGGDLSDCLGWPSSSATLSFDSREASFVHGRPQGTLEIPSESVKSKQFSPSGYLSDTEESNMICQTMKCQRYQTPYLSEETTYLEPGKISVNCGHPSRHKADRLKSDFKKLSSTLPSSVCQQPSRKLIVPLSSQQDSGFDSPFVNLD
UniProt Q9Y4B6: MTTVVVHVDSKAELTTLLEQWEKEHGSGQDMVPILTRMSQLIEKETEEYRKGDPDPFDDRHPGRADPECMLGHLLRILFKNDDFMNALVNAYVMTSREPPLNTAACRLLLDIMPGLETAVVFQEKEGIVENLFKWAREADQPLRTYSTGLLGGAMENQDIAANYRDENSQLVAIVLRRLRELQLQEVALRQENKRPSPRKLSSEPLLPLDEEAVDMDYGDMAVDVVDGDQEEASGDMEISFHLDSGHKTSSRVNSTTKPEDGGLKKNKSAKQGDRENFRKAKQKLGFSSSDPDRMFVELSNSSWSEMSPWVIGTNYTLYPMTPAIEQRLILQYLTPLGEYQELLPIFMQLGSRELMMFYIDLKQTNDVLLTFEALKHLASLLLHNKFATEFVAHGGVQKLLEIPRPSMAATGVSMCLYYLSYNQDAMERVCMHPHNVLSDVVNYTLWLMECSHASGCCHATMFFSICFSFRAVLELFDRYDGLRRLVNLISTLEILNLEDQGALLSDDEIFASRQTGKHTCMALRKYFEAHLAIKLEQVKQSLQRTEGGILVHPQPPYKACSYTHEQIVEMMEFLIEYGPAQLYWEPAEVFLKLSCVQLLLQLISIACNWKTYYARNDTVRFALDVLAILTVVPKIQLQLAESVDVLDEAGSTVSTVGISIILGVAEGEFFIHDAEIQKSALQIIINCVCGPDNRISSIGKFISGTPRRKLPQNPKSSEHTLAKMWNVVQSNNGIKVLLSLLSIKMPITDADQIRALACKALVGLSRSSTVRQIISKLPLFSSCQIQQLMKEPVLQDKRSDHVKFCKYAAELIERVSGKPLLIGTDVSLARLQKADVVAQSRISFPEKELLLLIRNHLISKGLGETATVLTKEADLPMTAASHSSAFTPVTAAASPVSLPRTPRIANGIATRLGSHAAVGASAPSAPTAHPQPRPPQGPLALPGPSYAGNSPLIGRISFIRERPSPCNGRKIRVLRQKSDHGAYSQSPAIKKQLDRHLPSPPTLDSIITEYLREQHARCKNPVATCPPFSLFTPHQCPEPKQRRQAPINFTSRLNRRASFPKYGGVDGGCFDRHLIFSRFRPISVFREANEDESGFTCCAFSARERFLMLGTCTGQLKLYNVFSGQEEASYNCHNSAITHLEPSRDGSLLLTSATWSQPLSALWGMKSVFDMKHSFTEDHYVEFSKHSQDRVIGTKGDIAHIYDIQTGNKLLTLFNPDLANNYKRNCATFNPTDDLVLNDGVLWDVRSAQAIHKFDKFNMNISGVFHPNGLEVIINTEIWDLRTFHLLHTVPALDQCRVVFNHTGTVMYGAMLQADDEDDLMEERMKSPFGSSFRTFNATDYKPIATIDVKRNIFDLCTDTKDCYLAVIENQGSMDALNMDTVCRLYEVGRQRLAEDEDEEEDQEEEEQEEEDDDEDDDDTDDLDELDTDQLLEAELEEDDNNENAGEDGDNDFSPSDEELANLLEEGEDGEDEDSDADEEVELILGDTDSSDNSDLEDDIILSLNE

Target: T1, Flag-PLK4 full length (wild type) (human) (UniProt O00444)
T1 sequence: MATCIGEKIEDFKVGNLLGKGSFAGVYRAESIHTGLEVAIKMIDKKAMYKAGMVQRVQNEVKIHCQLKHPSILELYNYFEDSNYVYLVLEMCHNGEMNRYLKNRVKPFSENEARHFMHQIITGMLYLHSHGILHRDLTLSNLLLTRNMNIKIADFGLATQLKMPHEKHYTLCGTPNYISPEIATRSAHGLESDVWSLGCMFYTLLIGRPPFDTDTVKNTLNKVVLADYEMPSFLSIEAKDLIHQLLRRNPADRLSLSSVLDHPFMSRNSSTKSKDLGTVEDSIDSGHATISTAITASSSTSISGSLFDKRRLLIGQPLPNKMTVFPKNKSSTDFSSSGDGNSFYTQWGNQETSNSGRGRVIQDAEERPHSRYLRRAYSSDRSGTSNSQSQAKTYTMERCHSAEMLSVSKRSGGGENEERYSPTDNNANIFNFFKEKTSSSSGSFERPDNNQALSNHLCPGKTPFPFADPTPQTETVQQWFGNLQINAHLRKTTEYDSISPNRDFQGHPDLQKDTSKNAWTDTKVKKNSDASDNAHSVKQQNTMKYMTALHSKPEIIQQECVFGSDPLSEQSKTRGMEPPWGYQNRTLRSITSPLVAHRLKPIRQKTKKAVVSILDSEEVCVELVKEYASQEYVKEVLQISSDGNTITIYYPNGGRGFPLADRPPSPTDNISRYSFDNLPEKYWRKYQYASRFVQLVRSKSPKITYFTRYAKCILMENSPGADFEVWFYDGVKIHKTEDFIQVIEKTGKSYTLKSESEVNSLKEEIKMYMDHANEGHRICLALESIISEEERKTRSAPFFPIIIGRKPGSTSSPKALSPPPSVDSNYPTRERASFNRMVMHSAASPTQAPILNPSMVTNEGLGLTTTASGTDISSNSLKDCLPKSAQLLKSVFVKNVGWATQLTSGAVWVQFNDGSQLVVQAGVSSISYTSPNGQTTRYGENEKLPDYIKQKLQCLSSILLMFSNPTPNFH
Experiment: affinity purification with mass spectrometry

| Substance | binding |
| --- | --- |
| β-TrCP (endogenous) (human (endogenous in HEK293T)) | binds |
| DCAF5 (endogenous) (from UniProt Q96JK2 1-942) | binds |
| DNA-damage binding protein 1 (DDB1) (from UniProt Q16531 1-1140) | binds |

Results, then the substance that gave them:

| binding | Substance |
| --- | --- |
| binds | CEP152 (endogenous) (from UniProt O94986 1-1710) |
| binds | DCAF1 (endogenous) (from UniProt Q9Y4B6 1-1507) |
